Consider one molecule from publication PMC5173251.

Sequences of proteins named here, by UniProt entry; tags and fusion partners are left off.
UniProt Q558Z2: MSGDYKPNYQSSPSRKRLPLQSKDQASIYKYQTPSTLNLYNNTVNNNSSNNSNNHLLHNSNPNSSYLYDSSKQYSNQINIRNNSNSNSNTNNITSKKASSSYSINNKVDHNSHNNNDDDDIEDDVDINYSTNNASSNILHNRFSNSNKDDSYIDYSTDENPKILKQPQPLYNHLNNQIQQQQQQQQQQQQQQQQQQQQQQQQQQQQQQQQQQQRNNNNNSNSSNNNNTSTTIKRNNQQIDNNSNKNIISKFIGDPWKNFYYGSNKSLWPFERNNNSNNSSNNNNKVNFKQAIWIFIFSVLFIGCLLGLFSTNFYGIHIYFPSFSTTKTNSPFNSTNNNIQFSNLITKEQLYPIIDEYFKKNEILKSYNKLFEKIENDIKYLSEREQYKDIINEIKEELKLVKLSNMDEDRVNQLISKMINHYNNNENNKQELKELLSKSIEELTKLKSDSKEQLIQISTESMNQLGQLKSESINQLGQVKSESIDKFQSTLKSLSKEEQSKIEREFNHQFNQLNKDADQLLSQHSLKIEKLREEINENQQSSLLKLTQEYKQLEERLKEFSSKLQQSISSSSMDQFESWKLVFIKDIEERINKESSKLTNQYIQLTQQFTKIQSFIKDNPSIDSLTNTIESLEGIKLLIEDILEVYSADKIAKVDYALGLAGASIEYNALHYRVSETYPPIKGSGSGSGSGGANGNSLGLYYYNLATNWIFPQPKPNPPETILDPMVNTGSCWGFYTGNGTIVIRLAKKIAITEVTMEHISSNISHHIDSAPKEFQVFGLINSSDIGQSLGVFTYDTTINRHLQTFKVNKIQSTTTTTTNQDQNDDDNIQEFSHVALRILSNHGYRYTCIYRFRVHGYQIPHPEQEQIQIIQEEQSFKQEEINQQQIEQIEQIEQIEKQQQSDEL

No constants are given. Whether binding was seen depends on the method and setting. In cells and extracts the contact can be indirect. A yes stands for co-enrichment or nearness to the bait. Other partners may have been found.

The target in this assay is GFP-Sun-1 (D. discoideum) (UniProt Q558Z2). Nature of the assay: affinity purification with mass spectrometry; lysate of AX2 cells expressing GFP-Sun-1, GFP antibodies on protein A Sepharose beads; bands cut from SDS gel and identified by MS (text: LCMS; legend of S2 Table: MALDI-MS).

B1: DdNKAP (endogenous) (protein, UniProt Q55ED4 1-510)
chain: MSHRERDRDRDRDSDRDRDRNRYSRSRSRGSRSRSRSRSRSRDRNRNRDYNKDRSSNRDSYYNDRDYKKDRSSNRDRDYYDRDRNRDYKNSSSGSSSGGGGGGSGENYTVKSSSYRESNSNNSKVEIQKQENISKDYFIDNKGVNNSIERKDNIKNENNNNNSFDNRKAEFNNNSYGEKKEFDNNNNRNYHGGNSRYVNNNNNNNNNNYNNNNNKSNYNGTDFFEYRKKLREEATCFSVYERSPSPPKKGELEEIDDQFLSNKKKSKKSRRKSSSNSDSSSSDSDSDSSRSREKRKKSKSRKDKKKRKEKKKHQRKSSKRSSKYSDSDSDSDSSFSDSDYSDSDRSDSEGRSRKKRSKKRSKKRHDHHKESVHDASMWEEKVEQQTQTLSNRDIGPKPISEVQVGSYGGAMMPGEAEAIAQFVKENKRIPRRGEVGLTSEQIASFEETGYVMSGSRHRRMNAVRIRKESQVYSAEEQKALAMLNREEKAKRENRLLADFRDLINTKLQAD
Regarding B1, the binding entry was “binds”.
